Measured data: PubChem BioAssay AID743454 (Peter MacCallum Cancer Centre, 2014)

Assay: 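Knock-downs lowering viability or raising caspase 3/7 activity in vorinostat-treated resistant cells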 (primary screen)
Cell system: human HCT116-VR colon cancer cells, selected for vorinostat resistance
Reagent: siRNA pool against human genes, 40 nM siRNA pool
Timing: vorinostat for 24 h, read-out about 72 h after transfection
Challenge: vorinostat at 2.5 µM final
Read-out: 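Two measures, CellTiter-Fluor viability and luminescent caspase 3/7 activity, each as fold change against same-plate mock wells, mean of duplicates, then screen-wide robust z-score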
Reading the numbers: viability robust z-score: higher = more viable cells than screen typical; caspase robust z-score: higher = more caspase 3/7 activity than screen typical
Rule for the call: 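a knock-down is a hit when classed RV1 or RV2 for lowered viability, or CA1 or CA2 for caspase activation; those lethal without drug were dropped; hits were retested singly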
In all, the deposit lists about 18,000 reagents; this is an unselected part. Of all reagents, 450 (2.5%) got an active call. 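Single biological run; no consistent viability z cut-off exists, so the class columns, not z-scores, define the calls.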 No sequences are given here.

gene knocked down	viability hit class	caspase hit class	viability robust z-score	caspase robust z-score	call
HPX	no change	no change	0.51	0.16	inactive
VRK2	no change	no change	-0.68	-0.29	inactive
OVOL1	no change	no change	0.21	-0.79	inactive
DNAAF4	no change	no change	-1.3	3.17	inactive
CENPM	no change	no change	-0.37	0.28	inactive
CNPY2	no change	no change	1.68	-0.71	inactive
LILRB5	no change	no change	0.41	-0.1	inactive
SIX5	no change	no change	0.71	1.54	inactive
CRHR1	no change	no change	-1.19	0.23	inactive
VCX	no change	no change	0.4	-0.86	inactive
AOAH	no change	no change	0.32	-0.22	inactive
RNPS1	no change	no change	-3.6	4.07	inactive
SCN4B	no change	no change	0.61	-0.36	inactive
STAMBPL1	no change	no change	-1.82	2.32	inactive
RPL29	no change	no change	-1.03	3.96	inactive
LRRC15	no change	no change	0.48	3.82	inactive
POLR1G	no change	no change	-0.72	3.99	inactive
S100A13	no change	no change	-0.44	-0.66	inactive
NT5C3A	no change	no change	0.76	-0.96	inactive
VCX3A	no change	no change	-0.35	1.6	inactive
UBAC1	no change	no change	0.66	-0.36	inactive
LY6G6F	no change	no change	1.06	-0.65	inactive
CLTCL1	no change	no change	0.86	-0.27	inactive

2 of these entries, reformatted.
S100A13 → viability hit class = no change; caspase hit class = no change; viability robust z-score = -0.44; caspase robust z-score = -0.66; call = inactive
NT5C3A → viability hit class = no change; caspase hit class = no change; viability robust z-score = 0.76; caspase robust z-score = -0.96; call = inactive
